The results in this text go back to article PMC13485621.

These are yes or no findings as the source states them, for the method shown. Some binding calls cover weakened binding; strength is not graded here. Tags and fused reporters may be left off the sequences shown.

For the test, the target named is T1, mCitrine-tagged GIPR C-tail, wild type (human) (UniProt P48546).
T1 sequence: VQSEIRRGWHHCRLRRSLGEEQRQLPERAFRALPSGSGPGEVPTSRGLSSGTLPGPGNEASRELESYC
Briefly: FRET or BRET; bimolecular FRET in solution; GIPC-mCer 30 nM (donor), mCit-GIPR C-tail 300 nM (WT, pm or pd), with or without β-arr2 300 nM; 20 mM HEPES pH 7.4, 25 mM KCl, 5 mM MgCl2; FRET ratio 525 nm/475 nm; both purified. A general note: In BRET a luciferase serves as donor, and the signal depends on an acceptor being close.

B1: mCerulean-tagged GIPC (protein, UniProt O14908 1-333)
chain: MPLGLGRRKKAPPLVENEEAEPGRGGLGVGEPGPLGGGGSGGPQMGLPPPPPALRPRLVFHTQLAHGSPTGRIEGFTNVKELYGKIAEAFRLPTAEVMFCTLNTHKVDMDKLLGGQIGLEDFIFAHVKGQRKEVEVFKSEDALGLTITDNGAGYAFIKRIKEGSVIDHIHLISVGDMIEAINGQSLLGCRHYEVARLLKELPRGRTFTLKLTEPRKAFDMISQRSAGGRPGSGPQLGTGRGTLRLRSRGPATVEDLPSAFEEKAIEKVDDLLESYMGIRDTELAATMVELGKDKRNPDELAEALDERLGDFAFPDEFVFDVWGAIGDAKVGRY
Take B1: the binding result is reported as “binds”.
